Measurements reported in PubChem BioAssay AID652272 (Drosophila RNAi Screening Center, 2013).

- Screen: 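Genes whose knock-down decreases or increases Hedgehog reporter output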 (primary screen)
- System: Drosophila clone 8 (Cl8) cells
- Knock-down reagent: long dsRNA against Drosophila genes
- Read-out: 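Plate reader light from a firefly reporter under a ptc promoter fragment that responds to Hedgehog, with Renilla light as transfection reference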
- Reading the numbers: firefly Hh reporter signal: higher = more ptc reporter light; Renilla reference signal: higher = more Renilla control light
- Call rule: 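Hit when the z-score averaged over two replicates is under -2 or over +3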
- Calls: active = hit: reporter lowered or raised; inactive = not a hit
The screen tested about 21,000 reagents; shown is an unselected part of those that have a named target and a result. Over the whole deposit, 503 (2.4%) were called active. 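Raw plate light values, not normalised; calls rest on replicate z-scores that were not deposited; hits include reporter decreases as well as increases.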 A number with no mark means an inactive call. Reagents against one gene are numbered here. Reagent sequences are not shown. The record does not give: the amount of reagent, the time to read-out.

firefly Hh reporter signal, replicate 1 | firefly Hh reporter signal, replicate 2 | firefly Hh reporter signal, replicate 3 | Renilla reference signal, replicate 1 | Renilla reference signal, replicate 2 | predicted target | dsRNA no.
91235 | 2.66e5 | – | 2475 | 10469 | CG42535 | 1
1.28e5 | 1.45e5 | – | 4429 | 7512 | TwdlV | 1
2.87e5 (active) | 48576 | 34738 | 4234 | 1282 | Nup153 | 1
98137 | 67061 | – | 2545 | 3347 | Tdc2 | 1
65264 | 1.49e5 | – | 1692 | 6880 | hfw | 1
56806 | 1.21e5 | – | 2364 | 3808 | CG14598 | 1
1.17e5 | 2.51e5 | – | 3804 | 10180 | nemy | 1
1.50e5 | 6.20e5 | 1.23e5 | 4451 | 35484 | nemy | 2
1.18e5 | 1.57e5 | – | 4579 | 5360 | Syx7 | 1
39731 | 2.70e5 | – | 793 | 4972 | CG31262 | 1
5.12e5 | 1.99e5 | – | 29971 | 4189 | CG32651 | 1
1.27e5 | 84624 | – | 4932 | 3044 | CG7906 | 1
1.03e5 | 61250 | – | 2684 | 5074 | Vm32E | 1
1.30e5 | – | – | 2067 | 3560 | CG5157 | 1
1.37e5 | 63702 | – | 3912 | 6800 | CadN2 | 1
1.08e5 | 69520 | – | 2612 | 6842 | CadN2 | 2
1.22e5 | 71740 | – | 3371 | 6061 | CadN2 | 3
1.07e5 | 1.66e5 | – | 3061 | 4288 | CG33170 | 1
86628 | 51824 | – | 4065 | 2348 | Cdc27 | 1
5.32e5 | 1.18e5 | – | 27220 | 3364 | CG5890 | 1
91440 | 30464 | – | 2461 | 4743 | Lip1 | 1
73393 | 58811 | – | 1873 | 6125 | CG13965 | 1
93176 | 26823 | – | 2272 | 2451 | Spn43Ad | 1
89075 | 53648 | – | 2413 | 5051 | TTLL3A | 1
95559 | 36726 | – | 2642 | 1909 | Bbd | 1
1.59e5 | 96865 | – | 2183 | 8180 | Rrp1 | 1
83856 | 1.09e5 | – | 2155 | 3234 | Ibf2 | 1
1.28e5 | 90776 | – | 3088 | 1842 | CG17078 | 1
1.33e5 | 71860 | – | 3115 | 1564 | Mur18B | 1
75563 | 53405 | – | 3706 | 2304 | cert | 1
66075 | 43283 | – | 2677 | 2064 | CR9337 | 1
89474 | 1.05e5 | – | 3380 | 3153 | Rcd7 | 1
1.19e5 | 1.96e5 | – | 2841 | 8240 | emp | 1
1.02e5 | 89654 | – | 4396 | 3473 | emp | 2
95229 | 79252 | – | 5094 | 3911 | ush | 1
49888 | 1.23e5 | – | 1808 | 3641 | CG31391 | 1
1.08e5 | 1.02e5 | – | 3205 | 9466 | egl | 1
7.90e5 | 8.04e5 | 3.03e5 | 38176 | 5616 | CG13995 | 1
1.59e5 | 75948 | – | 4346 | 7504 | CG13995 | 2

Targets listed so far whose target name begins with S or s:
firefly Hh reporter signal, replicate 1 | firefly Hh reporter signal, replicate 2 | firefly Hh reporter signal, replicate 3 | Renilla reference signal, replicate 1 | Renilla reference signal, replicate 2 | predicted target | dsRNA no.
1.18e5 | 1.57e5 | – | 4579 | 5360 | Syx7 | 1
93176 | 26823 | – | 2272 | 2451 | Spn43Ad | 1
